# Publication PMC11335232
# By UniProt entry, the sequences of proteins in these tests, tags left out.
# UniProt Q15022: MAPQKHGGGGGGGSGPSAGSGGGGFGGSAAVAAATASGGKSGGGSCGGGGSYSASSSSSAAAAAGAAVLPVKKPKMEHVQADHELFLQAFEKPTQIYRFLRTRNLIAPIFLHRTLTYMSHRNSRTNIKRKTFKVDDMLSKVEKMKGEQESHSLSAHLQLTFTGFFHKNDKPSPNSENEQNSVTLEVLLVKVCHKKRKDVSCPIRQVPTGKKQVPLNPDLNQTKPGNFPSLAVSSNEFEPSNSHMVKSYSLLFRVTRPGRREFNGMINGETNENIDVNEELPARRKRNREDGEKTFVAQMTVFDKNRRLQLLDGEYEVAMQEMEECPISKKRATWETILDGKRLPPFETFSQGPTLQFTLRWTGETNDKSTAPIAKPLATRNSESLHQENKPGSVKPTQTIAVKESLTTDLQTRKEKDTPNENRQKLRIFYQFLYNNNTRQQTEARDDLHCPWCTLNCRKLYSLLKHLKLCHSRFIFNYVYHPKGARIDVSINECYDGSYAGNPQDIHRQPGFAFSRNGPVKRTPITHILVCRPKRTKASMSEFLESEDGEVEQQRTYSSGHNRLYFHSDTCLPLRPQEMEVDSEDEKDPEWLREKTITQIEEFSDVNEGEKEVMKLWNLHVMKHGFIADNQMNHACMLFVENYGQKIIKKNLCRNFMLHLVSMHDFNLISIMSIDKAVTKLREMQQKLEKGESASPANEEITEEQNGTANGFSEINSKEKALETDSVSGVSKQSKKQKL
# Results are given in words; binding and its absence hold for the method and conditions named. In cells and extracts the contact can be indirect. Some entries that bind do so weakly or less than the wild type.
# Biological target: T1, CCCTC-binding factor (CTCF) (human (endogenous in NK92)) (UniProt P49711)
# T1 sequence: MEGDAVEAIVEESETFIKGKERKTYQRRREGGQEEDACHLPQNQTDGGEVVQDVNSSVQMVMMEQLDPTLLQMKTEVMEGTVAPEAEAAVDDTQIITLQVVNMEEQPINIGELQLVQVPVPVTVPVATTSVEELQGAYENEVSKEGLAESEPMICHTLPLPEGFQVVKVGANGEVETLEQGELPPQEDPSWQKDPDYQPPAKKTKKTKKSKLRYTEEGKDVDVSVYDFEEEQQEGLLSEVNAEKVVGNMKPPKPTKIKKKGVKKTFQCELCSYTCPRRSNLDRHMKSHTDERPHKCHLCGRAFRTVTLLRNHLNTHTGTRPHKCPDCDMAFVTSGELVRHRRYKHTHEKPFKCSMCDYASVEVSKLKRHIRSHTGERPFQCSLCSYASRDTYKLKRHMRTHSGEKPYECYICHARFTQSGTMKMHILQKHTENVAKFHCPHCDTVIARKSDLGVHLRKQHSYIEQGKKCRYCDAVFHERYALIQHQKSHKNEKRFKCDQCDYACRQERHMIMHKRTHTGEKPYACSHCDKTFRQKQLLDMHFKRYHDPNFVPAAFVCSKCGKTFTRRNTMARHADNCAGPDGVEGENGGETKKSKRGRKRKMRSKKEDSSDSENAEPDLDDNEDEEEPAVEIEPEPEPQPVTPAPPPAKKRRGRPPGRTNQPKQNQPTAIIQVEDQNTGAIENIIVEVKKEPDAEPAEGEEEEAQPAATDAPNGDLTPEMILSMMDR
# Assay: co-IP; endogenous proteins in NK92 lysate (20 mM Tris-HCl pH 7.5, 0.5% NP-40, 250 mM NaCl, 3 mM EDTA, 3 mM EGTA); overnight immunoprecipitation at 4 °C with antibodies or IgG, protein A/G magnetic beads, Western blot; untreated and rsMICA-treated cells
substance,measurement,value
suppressor of zeste 12 protein homolog (SUZ12) (from UniProt Q15022 1-739),binding,binds
